# Laboratory results as given in paper PMC9343379.
# No constants are given. Whether binding was seen depends on the method and setting. In cells and extracts the contact can be indirect. Some results given as binding are weak or reduced against the parent protein; the word gives no strength.
# Biological target: p53 (human (endogenous in HCT116 and Hela)), P04637
# Test: co-IP; endogenous p53 and endogenous MDM2 or USP11 in HCT116 cells; also compared in control and RRM1 knockdown cells after radiation treatment
# Conditions: remark: other sources report otherwise
binder,measurement,value
"Ubiquitin-specific protease USP11, P51784 1-963 (enzyme) MAVAPRLFGGLCFRFRDQNPEVAVEGRLPISHSCVGCRRERTAMATVAANPAAAAAAVAAAAAVTEDREPQHEELPGLDSQWRQIENGESGRERPLRAGESWFLVEKHWYKQWEAYVQGGDQDSSTFPGCINNATLFQDEINWRLKEGLVEGEDYVLLPAAAWHYLVSWYGLEHGQPPIERKVIELPNIQKVEVYPVELLLVRHNDLGKSHTVQFSHTDSIGLVLRTARERFLVEPQEDTRLWAKNSEGSLDRLYDTHITVLDAALETGQLIIMETRKKDGTWPSAQLHVMNNNMSEEDEDFKGQPGICGLTNLGNTCFMNSALQCLSNVPQLTEYFLNNCYLEELNFRNPLGMKGEIAEAYADLVKQAWSGHHRSIVPHVFKNKVGHFASQFLGYQQHDSQELLSFLLDGLHEDLNRVKKKEYVELCDAAGRPDQEVAQEAWQNHKRRNDSVIVDTFHGLFKSTLVCPDCGNVSVTFDPFCYLSVPLPISHKRVLEVFFIPMDPRRKPEQHRLVVPKKGKISDLCVALSKHTGISPERMMVADVFSHRFYKLYQLEEPLSSILDRDDIFVYEVSGRIEAIEGSREDIVVPVYLRERTPARDYNNSYYGLMLFGHPLLVSVPRDRFTWEGLYNVLMYRLSRYVTKPNSDDEDDGDEKEDDEEDKDDVPGPSTGGSLRDPEPEQAGPSSGVTNRCPFLLDNCLGTSQWPPRRRRKQLFTLQTVNSNGTSDRTTSPEEVHAQPYIAIDWEPEMKKRYYDEVEAEGYVKHDCVGYVMKKAPVRLQECIELFTTVETLEKENPWYCPSCKQHQLATKKLDLWMLPEILIIHLKRFSYTKFSREKLDTLVEFPIRDLDFSEFVIQPQNESNPELYKYDLIAVSNHYGGMRDGHYTTFACNKDSGQWHYFDDNSVSPVNENQIESKAAYVLFYQRQDVARRLLSPAGSSGAPASPACSSPPSSEFMDVN",binding,binds
